± gives the standard deviation of the averaged measurements. Only a part is listed here, and it is no random draw.

Sequences of proteins named here, by UniProt entry; tags and fusion partners are left off. A change or cut given only in a name is not applied to a line headed by its entry.
UniProt Q9UGQ2: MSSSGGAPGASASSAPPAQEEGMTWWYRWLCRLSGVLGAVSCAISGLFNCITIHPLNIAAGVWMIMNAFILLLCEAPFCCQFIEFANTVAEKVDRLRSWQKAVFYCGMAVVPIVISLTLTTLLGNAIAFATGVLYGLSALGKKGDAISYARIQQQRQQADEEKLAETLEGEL
UniProt Q9UHA4, whole entry: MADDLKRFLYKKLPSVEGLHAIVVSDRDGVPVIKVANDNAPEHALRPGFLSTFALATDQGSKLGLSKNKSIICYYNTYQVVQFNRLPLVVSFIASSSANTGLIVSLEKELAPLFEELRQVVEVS
UniProt Q9UHL0: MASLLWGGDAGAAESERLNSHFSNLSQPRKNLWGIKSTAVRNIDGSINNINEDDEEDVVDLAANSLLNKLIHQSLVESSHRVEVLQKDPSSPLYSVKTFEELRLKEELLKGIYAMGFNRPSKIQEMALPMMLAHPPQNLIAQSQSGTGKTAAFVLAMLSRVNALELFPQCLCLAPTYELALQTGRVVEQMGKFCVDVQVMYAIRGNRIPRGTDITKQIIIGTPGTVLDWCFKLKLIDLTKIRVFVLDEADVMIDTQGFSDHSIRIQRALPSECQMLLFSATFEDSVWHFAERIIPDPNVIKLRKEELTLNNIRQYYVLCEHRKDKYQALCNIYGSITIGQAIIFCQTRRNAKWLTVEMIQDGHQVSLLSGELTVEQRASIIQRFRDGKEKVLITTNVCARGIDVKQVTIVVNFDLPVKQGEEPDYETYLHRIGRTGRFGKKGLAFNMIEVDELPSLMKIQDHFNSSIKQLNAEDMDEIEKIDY
UniProt Q9UK61: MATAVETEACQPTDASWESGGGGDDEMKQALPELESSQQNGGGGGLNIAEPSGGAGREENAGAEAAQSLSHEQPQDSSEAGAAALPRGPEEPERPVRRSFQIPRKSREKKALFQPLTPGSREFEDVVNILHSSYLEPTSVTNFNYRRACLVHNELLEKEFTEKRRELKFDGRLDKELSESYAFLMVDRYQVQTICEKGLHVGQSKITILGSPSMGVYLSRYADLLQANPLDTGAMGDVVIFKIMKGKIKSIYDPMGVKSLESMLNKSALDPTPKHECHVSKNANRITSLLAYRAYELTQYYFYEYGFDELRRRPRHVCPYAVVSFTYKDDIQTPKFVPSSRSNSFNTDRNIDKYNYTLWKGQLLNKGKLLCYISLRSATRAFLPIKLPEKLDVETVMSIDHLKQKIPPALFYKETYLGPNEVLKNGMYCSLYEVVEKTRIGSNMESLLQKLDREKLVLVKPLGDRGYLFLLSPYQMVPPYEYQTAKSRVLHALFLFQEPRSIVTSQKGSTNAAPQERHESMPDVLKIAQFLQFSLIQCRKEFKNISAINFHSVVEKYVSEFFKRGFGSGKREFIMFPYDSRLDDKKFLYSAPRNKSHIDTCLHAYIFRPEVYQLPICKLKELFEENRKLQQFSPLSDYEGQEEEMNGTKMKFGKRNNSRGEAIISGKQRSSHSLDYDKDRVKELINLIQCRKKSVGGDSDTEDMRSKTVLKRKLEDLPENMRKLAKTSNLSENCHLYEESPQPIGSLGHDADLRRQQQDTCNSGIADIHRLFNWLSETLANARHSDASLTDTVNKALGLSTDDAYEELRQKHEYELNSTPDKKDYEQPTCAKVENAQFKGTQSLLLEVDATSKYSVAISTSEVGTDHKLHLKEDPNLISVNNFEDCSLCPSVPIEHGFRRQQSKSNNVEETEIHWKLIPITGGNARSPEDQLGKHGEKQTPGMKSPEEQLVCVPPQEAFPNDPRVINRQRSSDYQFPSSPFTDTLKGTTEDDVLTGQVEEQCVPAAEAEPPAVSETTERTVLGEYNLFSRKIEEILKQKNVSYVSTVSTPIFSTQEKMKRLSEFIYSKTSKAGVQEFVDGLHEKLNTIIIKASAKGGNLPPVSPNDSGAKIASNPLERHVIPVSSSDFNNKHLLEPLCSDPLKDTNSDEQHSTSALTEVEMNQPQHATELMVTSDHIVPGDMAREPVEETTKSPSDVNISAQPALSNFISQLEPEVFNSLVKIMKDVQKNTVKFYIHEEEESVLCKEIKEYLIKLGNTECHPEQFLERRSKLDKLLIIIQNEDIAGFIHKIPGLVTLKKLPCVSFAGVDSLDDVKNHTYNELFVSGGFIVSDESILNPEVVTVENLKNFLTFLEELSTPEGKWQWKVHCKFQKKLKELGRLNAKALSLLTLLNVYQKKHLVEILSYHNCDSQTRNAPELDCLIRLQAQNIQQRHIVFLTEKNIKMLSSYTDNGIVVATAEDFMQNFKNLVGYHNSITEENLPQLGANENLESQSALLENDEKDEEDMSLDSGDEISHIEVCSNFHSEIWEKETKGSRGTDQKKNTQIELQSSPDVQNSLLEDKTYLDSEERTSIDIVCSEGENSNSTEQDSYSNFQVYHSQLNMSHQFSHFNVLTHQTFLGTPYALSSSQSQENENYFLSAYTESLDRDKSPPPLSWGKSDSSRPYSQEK
UniProt Q9UHV7: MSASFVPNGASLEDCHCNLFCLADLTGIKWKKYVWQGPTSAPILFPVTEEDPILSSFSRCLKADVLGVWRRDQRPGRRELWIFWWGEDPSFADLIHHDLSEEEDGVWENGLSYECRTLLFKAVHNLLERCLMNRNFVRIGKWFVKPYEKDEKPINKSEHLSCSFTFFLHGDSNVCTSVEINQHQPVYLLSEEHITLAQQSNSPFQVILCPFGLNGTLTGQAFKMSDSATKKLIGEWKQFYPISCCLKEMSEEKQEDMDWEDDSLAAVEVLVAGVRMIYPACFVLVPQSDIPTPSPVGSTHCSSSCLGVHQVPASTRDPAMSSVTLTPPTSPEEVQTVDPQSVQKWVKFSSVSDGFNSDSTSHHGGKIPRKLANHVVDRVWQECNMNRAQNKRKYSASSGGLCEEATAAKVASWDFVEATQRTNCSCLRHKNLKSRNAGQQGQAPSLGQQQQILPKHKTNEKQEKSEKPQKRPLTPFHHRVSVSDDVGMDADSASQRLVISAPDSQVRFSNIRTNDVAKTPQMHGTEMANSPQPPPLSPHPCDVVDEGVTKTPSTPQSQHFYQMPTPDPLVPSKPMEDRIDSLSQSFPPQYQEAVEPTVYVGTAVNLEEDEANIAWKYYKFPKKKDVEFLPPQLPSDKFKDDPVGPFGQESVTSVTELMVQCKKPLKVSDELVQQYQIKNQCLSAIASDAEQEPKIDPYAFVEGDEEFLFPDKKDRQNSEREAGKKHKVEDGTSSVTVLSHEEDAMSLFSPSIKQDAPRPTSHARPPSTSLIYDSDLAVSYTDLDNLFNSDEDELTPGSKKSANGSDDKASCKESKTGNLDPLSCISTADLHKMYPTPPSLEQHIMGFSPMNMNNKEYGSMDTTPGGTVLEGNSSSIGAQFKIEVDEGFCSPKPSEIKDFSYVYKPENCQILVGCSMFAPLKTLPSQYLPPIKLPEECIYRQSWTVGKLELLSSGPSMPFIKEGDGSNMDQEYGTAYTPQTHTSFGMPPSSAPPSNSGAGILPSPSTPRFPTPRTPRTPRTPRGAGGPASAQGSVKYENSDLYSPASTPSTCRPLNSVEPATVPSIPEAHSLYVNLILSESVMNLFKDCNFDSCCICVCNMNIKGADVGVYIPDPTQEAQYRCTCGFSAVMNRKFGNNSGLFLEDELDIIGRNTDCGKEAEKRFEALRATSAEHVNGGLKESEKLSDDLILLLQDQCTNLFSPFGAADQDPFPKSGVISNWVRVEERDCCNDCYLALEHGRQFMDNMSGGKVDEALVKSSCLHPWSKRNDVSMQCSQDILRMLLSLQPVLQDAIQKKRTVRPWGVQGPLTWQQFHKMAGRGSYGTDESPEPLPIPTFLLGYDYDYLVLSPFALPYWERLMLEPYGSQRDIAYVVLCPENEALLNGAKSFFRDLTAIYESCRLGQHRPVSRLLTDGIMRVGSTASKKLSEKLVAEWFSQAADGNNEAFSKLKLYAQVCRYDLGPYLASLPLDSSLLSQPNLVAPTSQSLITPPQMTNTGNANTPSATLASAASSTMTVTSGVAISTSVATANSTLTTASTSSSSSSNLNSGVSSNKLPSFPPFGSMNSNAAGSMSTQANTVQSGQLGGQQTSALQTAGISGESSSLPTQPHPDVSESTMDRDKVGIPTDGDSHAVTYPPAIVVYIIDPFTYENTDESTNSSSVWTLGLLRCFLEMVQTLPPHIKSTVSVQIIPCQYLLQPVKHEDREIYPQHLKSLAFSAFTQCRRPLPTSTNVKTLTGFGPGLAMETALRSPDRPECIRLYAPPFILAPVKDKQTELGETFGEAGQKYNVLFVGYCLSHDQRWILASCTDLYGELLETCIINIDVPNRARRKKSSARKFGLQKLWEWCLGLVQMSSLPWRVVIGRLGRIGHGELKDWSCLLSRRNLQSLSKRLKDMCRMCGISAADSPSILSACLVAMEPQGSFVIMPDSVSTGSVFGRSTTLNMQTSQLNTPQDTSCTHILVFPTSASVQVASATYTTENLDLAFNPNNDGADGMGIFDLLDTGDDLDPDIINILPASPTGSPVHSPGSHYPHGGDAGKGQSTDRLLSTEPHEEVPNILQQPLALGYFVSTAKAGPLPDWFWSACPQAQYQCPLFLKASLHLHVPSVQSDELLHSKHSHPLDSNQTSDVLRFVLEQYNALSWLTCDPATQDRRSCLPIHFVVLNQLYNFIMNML
UniProt Q9UID3: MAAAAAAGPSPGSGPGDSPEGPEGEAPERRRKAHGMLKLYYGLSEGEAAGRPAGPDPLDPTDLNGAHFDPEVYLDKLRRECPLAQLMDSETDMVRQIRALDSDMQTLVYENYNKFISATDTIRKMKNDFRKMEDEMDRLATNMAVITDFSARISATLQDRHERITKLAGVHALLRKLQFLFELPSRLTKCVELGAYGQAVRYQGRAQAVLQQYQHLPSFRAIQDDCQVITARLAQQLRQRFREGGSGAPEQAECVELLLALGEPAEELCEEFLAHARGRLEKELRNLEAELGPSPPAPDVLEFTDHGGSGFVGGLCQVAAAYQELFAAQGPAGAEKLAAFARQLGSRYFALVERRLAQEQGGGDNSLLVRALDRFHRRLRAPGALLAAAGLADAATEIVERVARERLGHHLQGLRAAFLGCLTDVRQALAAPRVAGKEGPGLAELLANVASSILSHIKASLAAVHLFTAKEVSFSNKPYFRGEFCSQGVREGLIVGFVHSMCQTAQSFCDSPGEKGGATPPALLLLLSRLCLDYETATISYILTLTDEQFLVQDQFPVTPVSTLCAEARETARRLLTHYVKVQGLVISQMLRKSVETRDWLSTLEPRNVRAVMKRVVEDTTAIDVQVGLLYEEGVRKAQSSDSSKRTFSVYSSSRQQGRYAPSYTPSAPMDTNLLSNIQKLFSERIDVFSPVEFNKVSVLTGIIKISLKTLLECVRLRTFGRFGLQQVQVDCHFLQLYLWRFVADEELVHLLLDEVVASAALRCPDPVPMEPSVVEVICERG
UniProt Q9UII2: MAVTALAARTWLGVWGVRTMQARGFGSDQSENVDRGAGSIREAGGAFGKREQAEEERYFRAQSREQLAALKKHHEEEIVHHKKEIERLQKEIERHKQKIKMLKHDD
UniProt Q9UBS8: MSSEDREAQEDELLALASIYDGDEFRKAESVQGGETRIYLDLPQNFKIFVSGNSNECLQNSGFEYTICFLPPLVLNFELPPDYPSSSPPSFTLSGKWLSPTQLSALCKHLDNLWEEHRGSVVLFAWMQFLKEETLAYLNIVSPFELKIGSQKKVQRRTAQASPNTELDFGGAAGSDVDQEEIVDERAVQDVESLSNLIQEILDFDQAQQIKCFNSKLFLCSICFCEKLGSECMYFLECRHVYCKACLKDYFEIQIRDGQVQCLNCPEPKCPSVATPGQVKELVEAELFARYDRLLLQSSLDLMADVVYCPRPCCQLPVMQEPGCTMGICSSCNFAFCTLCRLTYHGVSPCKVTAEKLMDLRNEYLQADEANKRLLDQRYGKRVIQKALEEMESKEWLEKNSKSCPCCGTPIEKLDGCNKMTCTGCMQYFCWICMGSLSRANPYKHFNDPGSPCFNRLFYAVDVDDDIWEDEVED
UniProt Q9UJX3, whole entry: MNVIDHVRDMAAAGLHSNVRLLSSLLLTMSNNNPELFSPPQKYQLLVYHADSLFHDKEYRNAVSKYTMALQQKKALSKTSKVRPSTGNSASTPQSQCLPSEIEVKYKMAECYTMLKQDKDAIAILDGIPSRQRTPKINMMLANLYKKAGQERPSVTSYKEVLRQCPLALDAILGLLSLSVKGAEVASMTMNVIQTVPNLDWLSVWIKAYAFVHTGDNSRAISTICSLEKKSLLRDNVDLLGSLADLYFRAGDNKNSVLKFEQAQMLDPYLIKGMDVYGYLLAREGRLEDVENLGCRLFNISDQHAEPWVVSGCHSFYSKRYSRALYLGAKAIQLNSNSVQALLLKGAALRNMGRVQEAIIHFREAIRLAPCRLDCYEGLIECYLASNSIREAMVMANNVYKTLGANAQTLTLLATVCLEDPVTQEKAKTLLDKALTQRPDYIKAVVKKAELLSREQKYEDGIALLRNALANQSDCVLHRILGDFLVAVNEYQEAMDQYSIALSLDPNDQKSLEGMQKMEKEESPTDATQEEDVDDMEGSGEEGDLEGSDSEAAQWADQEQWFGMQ

Compound in the first assay: Nc1ncnc2c1ncn2[C@@H]1O[C@H](COP(=O)(O)OP(=O)(O)OP(=O)(O)O)[C@@H](O)[C@H]1O [adenosine triphosphate]
Put plainly: NP40-soluble protein abundance relative to vehicle (solubility fold change) (ratio); higher = more soluble protein in presence of ATP. Conditions: concentration: 4mM. The method in brief:
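Values are fold changes against the detergent-processed vehicle, based on vsn-normalised intensities. Jurkat crude lysate was treated at eight concentrations from 0.1 to 10 mM (10 min at room temperature, then 3 min at 37 °C), solubilised with 0.8% NP40 and benzonase, ultracentrifuged and analysed by TMT-labelled LC-MS/MS over three independent experiments.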
Regarding “UniProt Q9UMZ2-3|Q9UMZ2-4|Q9UMZ2-5|Q9UMZ2-6|Q9UMZ2-7|Q9UMZ2-8|Q9UMZ2-9|Q9UMZ2”, the NP40-soluble protein abundance stood at 0.935 ± 0.03.
In the case of COPS3 (UniProt Q9UNS2), the NP40-soluble protein abundance was 0.896 ± 0.045.
In the case of AP4E1 (UniProt Q9UPM8), the NP40-soluble protein abundance was found to be 1.11 ± 0.07.
For the target ANKRD50 (UniProt Q9ULJ7), the NP40-soluble protein abundance was found to be 0.963 ± 0.034.
The same measure, in the same setting: for CHORDC1 (UniProt Q9UHD1) the value was 0.937 ± 0.06.
For the target SLC39A10 (UniProt Q9ULF5), the NP40-soluble protein abundance came out at 0.967 ± 0.019.
On to CROT (UniProt Q9UKG9), for which the NP40-soluble protein abundance is 0.977 ± 0.068.
On to UniProt Q9UGQ2 and related entries, for which the NP40-soluble protein abundance worked out at 1.05 ± 0.096.
Turning to UniProt Q9UM21, the NP40-soluble protein abundance stood at 1.04 ± 0.055.
For the target UniProt Q9UHA4, the NP40-soluble protein abundance is 1.02 ± 0.084.
Take UniProt Q9UKT9 and related entries: the NP40-soluble protein abundance came to 1.1 ± 0.081.
As to NENF (UniProt Q9UMX5), the NP40-soluble protein abundance was 0.962 ± 0.05.
With UniProt Q9UJK0, the NP40-soluble protein abundance came out at 0.949 ± 0.029.
As for GPATCH8 (UniProt Q9UKJ3), the NP40-soluble protein abundance was determined as 1.39 ± 0.11.
On to UniProt Q9UKZ1, for which the NP40-soluble protein abundance is 1.17 ± 0.062.
Consider UniProt Q9UHL0 and related entries, for which the NP40-soluble protein abundance is 1.19 ± 0.082.
Take UniProt Q9UH92 and related entries: the NP40-soluble protein abundance worked out at 1.06 ± 0.13.
Consider UniProt Q9UHP3 and related entries, for which the NP40-soluble protein abundance was 0.918 ± 0.044.
Consider UniProt Q9UK61 and related entries, for which the NP40-soluble protein abundance is 1.16 ± 0.034.
The same measure, in the same setting: the same measure for MED13 (UniProt Q9UHV7): 1.23 ± 0.022; for APPL1 (UniProt Q9UKG1): 1.03 ± 0.064; for VPS51 (UniProt Q9UID3): 0.986 ± 0.051.
For UniProt Q9UJX5 and related entries, the NP40-soluble protein abundance was 0.987 ± 0.015.
Same read-out and setting: the same measure for PRPF19 (UniProt Q9UMS4): 1.01 ± 0.013.
For the target UniProt Q9P260 and related entries, the NP40-soluble protein abundance stood at 0.971 ± 0.058.
As for DCTN4 (UniProt Q9UJW0), the NP40-soluble protein abundance is 0.976 ± 0.012.
On to UniProt Q9ULP9 and related entries, for which the NP40-soluble protein abundance amounted to 1.01 ± 0.064.
Same read-out and setting: for UniProt Q9UII2 the value was 0.909 ± 0.13; for UniProt Q9UPY8 and related entries, 0.96 ± 0.073; for UniProt Q9ULL5-3, 1.06 ± 0.088.
With UniProt Q9UDT6-2, the NP40-soluble protein abundance is 1.15 ± 0.1.
Take UniProt Q9UJY5 and related entries: the NP40-soluble protein abundance was 0.945 ± 0.034.
With UniProt Q9UBS8 and related entries, the NP40-soluble protein abundance was determined as 0.998 ± 0.051.
With CGN (UniProt Q9P2M7), the NP40-soluble protein abundance came to 1.09 ± 0.015.
Consider HECA (UniProt Q9UBI9), for which the NP40-soluble protein abundance was 1.07 ± 0.49.
Still for that read-out and setting: for HECTD1 (UniProt Q9ULT8) the value was 0.993 ± 0.035; for ANAPC7 (UniProt Q9UJX3), 0.993 ± 0.04.
On the same count and under the same terms, for MRPS33 (UniProt Q9Y291) the value was 0.883 ± 0.16.

The same assay, now with this note: concentration: 6mM.
In the case of “UniProt Q9UMZ2-3|Q9UMZ2-4|Q9UMZ2-5|Q9UMZ2-6|Q9UMZ2-7|Q9UMZ2-8|Q9UMZ2-9|Q9UMZ2”, the NP40-soluble protein abundance is 0.965 ± 0.036.
Turning to COPS3 (UniProt Q9UNS2), the NP40-soluble protein abundance stood at 0.901 ± 0.036.
For AP4E1 (UniProt Q9UPM8), the NP40-soluble protein abundance came out at 1.11 ± 0.046.
Take ANKRD50 (UniProt Q9ULJ7): the NP40-soluble protein abundance came out at 0.952 ± 0.059.
CHORDC1 (UniProt Q9UHD1): the NP40-soluble protein abundance came to 0.971 ± 0.036.
On to SLC39A10 (UniProt Q9ULF5), for which the NP40-soluble protein abundance is 1.01 ± 0.041.
CROT (UniProt Q9UKG9): the NP40-soluble protein abundance came out at 0.946 ± 0.1.
With UniProt Q9UGQ2 and related entries, the NP40-soluble protein abundance stood at 0.961 ± 0.06.
With UniProt Q9UM21, the NP40-soluble protein abundance was 0.994 ± 0.079.
Regarding UniProt Q9UHA4, the NP40-soluble protein abundance amounted to 0.954 ± 0.09.
Take UniProt Q9UKT9 and related entries: the NP40-soluble protein abundance was 1.17 ± 0.081.
NENF (UniProt Q9UMX5): the NP40-soluble protein abundance amounted to 0.94 ± 0.063.
Still for that read-out and setting: for UniProt Q9UJK0 the value was 0.895 ± 0.015; for GPATCH8 (UniProt Q9UKJ3), 1.39 ± 0.079; for UniProt Q9UKZ1, 1.21 ± 0.069.
As for UniProt Q9UHL0 and related entries, the NP40-soluble protein abundance stood at 1.278 ± 0.0052.
Regarding UniProt Q9UH92 and related entries, the NP40-soluble protein abundance came to 1.06 ± 0.036.
As to UniProt Q9UHP3 and related entries, the NP40-soluble protein abundance is 0.795 ± 0.15.
Consider UniProt Q9UK61 and related entries, for which the NP40-soluble protein abundance came to 1.16 ± 0.047.
As for MED13 (UniProt Q9UHV7), the NP40-soluble protein abundance was 1.17 ± 0.015.
Turning to APPL1 (UniProt Q9UKG1), the NP40-soluble protein abundance came out at 0.973 ± 0.078.
With VPS51 (UniProt Q9UID3), the NP40-soluble protein abundance came to 0.888 ± 0.075.
Same read-out and setting: the same measure for UniProt Q9UJX5 and related entries: 0.95 ± 0.03.
Regarding PRPF19 (UniProt Q9UMS4), the NP40-soluble protein abundance was 1.05 ± 0.018.
In the case of UniProt Q9P260 and related entries, the NP40-soluble protein abundance was 1.01 ± 0.016.
As for DCTN4 (UniProt Q9UJW0), the NP40-soluble protein abundance was found to be 0.96 ± 0.065.
Still for that read-out and setting: the same measure for UniProt Q9ULP9 and related entries: 0.938 ± 0.075; for UniProt Q9UII2: 0.96 ± 0.14; for UniProt Q9UPY8 and related entries: 0.961 ± 0.017.
In the case of UniProt Q9ULL5-3, the NP40-soluble protein abundance stood at 1.01 ± 0.068.
UniProt Q9UDT6-2: the NP40-soluble protein abundance was determined as 1.21 ± 0.14.
Regarding UniProt Q9UJY5 and related entries, the NP40-soluble protein abundance worked out at 0.9461 ± 0.0075.
Take UniProt Q9UBS8 and related entries: the NP40-soluble protein abundance was 0.998 ± 0.044.
For the target CGN (UniProt Q9P2M7), the NP40-soluble protein abundance was found to be 1.13 ± 0.021.
HECA (UniProt Q9UBI9): the NP40-soluble protein abundance stood at 1.07 ± 0.48.
As for HECTD1 (UniProt Q9ULT8), the NP40-soluble protein abundance was 0.974 ± 0.017.
Take ANAPC7 (UniProt Q9UJX3): the NP40-soluble protein abundance came to 1.01 ± 0.042.
For the target MRPS33 (UniProt Q9Y291), the NP40-soluble protein abundance worked out at 0.915 ± 0.37.

Still in this assay, the particulars now being: concentration: 8mM.
In the case of “UniProt Q9UMZ2-3|Q9UMZ2-4|Q9UMZ2-5|Q9UMZ2-6|Q9UMZ2-7|Q9UMZ2-8|Q9UMZ2-9|Q9UMZ2”, the NP40-soluble protein abundance worked out at 0.909 ± 0.016.
The same measure, in the same setting: for COPS3 (UniProt Q9UNS2) the value was 0.89 ± 0.052; for AP4E1 (UniProt Q9UPM8), 1.14 ± 0.07; for ANKRD50 (UniProt Q9ULJ7), 0.943 ± 0.055.
For CHORDC1 (UniProt Q9UHD1), the NP40-soluble protein abundance came to 0.963 ± 0.071.
Consider SLC39A10 (UniProt Q9ULF5), for which the NP40-soluble protein abundance was 0.941 ± 0.024.
In the case of CROT (UniProt Q9UKG9), the NP40-soluble protein abundance is 1.01 ± 0.073.
Regarding UniProt Q9UGQ2 and related entries, the NP40-soluble protein abundance amounted to 1.02 ± 0.064.
For the target UniProt Q9UM21, the NP40-soluble protein abundance came out at 0.996 ± 0.01.
Regarding UniProt Q9UHA4, the NP40-soluble protein abundance came to 0.985 ± 0.11.
Regarding UniProt Q9UKT9 and related entries, the NP40-soluble protein abundance is 1.19 ± 0.058.
Consider NENF (UniProt Q9UMX5), for which the NP40-soluble protein abundance worked out at 0.9121 ± 0.0089.
Consider UniProt Q9UJK0, for which the NP40-soluble protein abundance came to 0.962 ± 0.11.
On to GPATCH8 (UniProt Q9UKJ3), for which the NP40-soluble protein abundance came to 1.25 ± 0.072.
In the case of UniProt Q9UKZ1, the NP40-soluble protein abundance is 1.22 ± 0.032.
Still for that read-out and setting: for UniProt Q9UHL0 and related entries the value was 1.03 ± 0.11; for UniProt Q9UH92 and related entries, 0.991 ± 0.039; for UniProt Q9UHP3 and related entries, 0.87 ± 0.028.
Turning to UniProt Q9UK61 and related entries, the NP40-soluble protein abundance turned out to be 1.21 ± 0.034.
Take MED13 (UniProt Q9UHV7): the NP40-soluble protein abundance came out at 1.07 ± 0.022.
Still for that read-out and setting: for APPL1 (UniProt Q9UKG1) the value was 1.03 ± 0.04; for VPS51 (UniProt Q9UID3), 0.974 ± 0.045; for UniProt Q9UJX5 and related entries, 0.977 ± 0.043.
In the case of PRPF19 (UniProt Q9UMS4), the NP40-soluble protein abundance turned out to be 1.07 ± 0.012.
As for UniProt Q9P260 and related entries, the NP40-soluble protein abundance stood at 0.986 ± 0.031.
Take DCTN4 (UniProt Q9UJW0): the NP40-soluble protein abundance came to 0.988 ± 0.063.
On to UniProt Q9ULP9 and related entries, for which the NP40-soluble protein abundance was 0.9599 ± 0.0092.
On to UniProt Q9UII2, for which the NP40-soluble protein abundance turned out to be 0.889 ± 0.025.
Take UniProt Q9UPY8 and related entries: the NP40-soluble protein abundance is 0.892 ± 0.051.
As for UniProt Q9ULL5-3, the NP40-soluble protein abundance was 1.01 ± 0.04.
On to UniProt Q9UDT6-2, for which the NP40-soluble protein abundance turned out to be 1.19 ± 0.15.
Consider UniProt Q9UJY5 and related entries, for which the NP40-soluble protein abundance came to 0.911 ± 0.025.
UniProt Q9UBS8 and related entries: the NP40-soluble protein abundance is 0.991 ± 0.044.
For the target CGN (UniProt Q9P2M7), the NP40-soluble protein abundance worked out at 1.08 ± 0.012.
With HECA (UniProt Q9UBI9), the NP40-soluble protein abundance is 1.14 ± 0.52.
Consider HECTD1 (UniProt Q9ULT8), for which the NP40-soluble protein abundance stood at 0.9749 ± 0.0087.
Consider ANAPC7 (UniProt Q9UJX3), for which the NP40-soluble protein abundance was determined as 0.983 ± 0.046.
In the case of MRPS33 (UniProt Q9Y291), the NP40-soluble protein abundance is 0.847 ± 0.24.
